According to the supplement of paper PMC7666118:
This is one part of the list.

Sequences of proteins named here, by UniProt entry; tags and fusion partners are left off. A change or cut given only in a name is not applied to a line headed by its entry.
UniProt Q8N9N2: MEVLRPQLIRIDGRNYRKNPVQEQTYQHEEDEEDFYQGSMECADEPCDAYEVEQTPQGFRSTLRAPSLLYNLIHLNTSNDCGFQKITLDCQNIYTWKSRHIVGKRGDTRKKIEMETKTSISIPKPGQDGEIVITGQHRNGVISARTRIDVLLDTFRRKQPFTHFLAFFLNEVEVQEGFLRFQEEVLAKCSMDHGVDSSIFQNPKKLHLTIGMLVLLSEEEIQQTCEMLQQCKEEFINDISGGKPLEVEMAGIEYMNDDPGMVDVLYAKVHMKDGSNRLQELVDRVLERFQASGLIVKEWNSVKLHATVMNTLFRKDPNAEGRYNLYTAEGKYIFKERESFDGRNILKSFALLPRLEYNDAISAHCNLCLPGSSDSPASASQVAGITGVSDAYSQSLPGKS
UniProt Q9BXS5: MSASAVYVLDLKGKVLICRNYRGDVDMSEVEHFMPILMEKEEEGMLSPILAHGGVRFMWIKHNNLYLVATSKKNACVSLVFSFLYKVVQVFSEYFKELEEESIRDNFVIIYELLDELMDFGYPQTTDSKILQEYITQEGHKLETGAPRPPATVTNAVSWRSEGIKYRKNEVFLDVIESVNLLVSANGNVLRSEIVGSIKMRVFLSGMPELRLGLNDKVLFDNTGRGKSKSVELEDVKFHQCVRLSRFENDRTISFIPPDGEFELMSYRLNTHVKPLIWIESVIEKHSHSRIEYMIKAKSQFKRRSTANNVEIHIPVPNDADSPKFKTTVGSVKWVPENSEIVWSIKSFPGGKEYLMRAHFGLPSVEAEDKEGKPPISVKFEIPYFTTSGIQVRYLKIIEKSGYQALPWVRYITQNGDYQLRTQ
UniProt P48444: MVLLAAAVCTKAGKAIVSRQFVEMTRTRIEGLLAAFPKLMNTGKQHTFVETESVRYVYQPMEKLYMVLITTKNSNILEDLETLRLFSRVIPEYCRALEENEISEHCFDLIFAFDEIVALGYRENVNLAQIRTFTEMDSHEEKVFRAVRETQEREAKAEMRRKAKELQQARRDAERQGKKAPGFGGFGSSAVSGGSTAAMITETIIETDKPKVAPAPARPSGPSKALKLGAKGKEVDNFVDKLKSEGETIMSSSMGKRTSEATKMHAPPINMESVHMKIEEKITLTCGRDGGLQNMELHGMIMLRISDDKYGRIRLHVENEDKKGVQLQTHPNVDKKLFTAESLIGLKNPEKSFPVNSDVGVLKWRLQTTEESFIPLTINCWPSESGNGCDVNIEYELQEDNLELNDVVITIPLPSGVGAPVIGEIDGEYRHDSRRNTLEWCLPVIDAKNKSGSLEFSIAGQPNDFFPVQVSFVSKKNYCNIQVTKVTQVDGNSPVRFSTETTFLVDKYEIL
UniProt Q9Y294, whole entry: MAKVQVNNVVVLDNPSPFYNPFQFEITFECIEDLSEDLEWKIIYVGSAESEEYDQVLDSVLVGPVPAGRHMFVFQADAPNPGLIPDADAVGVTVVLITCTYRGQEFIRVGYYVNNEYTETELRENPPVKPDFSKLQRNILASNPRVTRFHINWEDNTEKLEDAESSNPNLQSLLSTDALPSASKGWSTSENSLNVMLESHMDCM
UniProt P52594: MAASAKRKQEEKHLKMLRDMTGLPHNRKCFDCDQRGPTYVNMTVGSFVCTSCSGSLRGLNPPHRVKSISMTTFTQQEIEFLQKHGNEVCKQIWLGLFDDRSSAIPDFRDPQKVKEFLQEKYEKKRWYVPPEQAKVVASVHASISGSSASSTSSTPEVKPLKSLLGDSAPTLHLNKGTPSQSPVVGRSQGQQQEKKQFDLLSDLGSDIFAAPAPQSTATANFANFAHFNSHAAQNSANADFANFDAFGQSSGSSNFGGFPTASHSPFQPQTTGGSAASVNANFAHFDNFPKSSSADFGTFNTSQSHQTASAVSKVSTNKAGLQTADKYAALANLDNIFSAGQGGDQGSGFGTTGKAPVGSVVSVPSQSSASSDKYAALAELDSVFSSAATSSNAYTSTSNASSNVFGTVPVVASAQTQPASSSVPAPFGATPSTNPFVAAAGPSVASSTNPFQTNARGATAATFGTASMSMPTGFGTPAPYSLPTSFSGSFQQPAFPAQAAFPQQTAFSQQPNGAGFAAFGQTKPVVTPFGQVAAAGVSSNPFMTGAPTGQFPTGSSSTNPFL
UniProt Q9UJX4, whole entry: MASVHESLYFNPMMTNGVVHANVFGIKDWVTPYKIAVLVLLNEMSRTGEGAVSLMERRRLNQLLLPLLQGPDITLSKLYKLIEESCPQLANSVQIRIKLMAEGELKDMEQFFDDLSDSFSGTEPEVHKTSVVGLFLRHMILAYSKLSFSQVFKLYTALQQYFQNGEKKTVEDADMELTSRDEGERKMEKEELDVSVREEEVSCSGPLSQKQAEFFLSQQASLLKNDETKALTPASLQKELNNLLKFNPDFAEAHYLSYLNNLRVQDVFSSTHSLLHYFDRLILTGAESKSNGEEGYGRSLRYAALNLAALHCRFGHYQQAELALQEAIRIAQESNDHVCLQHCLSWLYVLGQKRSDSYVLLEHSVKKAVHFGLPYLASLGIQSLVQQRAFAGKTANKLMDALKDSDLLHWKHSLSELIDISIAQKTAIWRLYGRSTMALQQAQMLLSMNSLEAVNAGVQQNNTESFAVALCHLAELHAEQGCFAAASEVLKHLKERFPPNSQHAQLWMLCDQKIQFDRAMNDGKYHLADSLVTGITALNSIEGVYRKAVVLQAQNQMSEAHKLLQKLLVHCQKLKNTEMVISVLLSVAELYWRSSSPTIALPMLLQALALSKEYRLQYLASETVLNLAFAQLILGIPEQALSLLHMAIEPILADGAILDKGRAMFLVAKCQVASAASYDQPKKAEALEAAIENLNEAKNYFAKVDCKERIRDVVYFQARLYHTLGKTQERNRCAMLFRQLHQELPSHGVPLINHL
UniProt P51648: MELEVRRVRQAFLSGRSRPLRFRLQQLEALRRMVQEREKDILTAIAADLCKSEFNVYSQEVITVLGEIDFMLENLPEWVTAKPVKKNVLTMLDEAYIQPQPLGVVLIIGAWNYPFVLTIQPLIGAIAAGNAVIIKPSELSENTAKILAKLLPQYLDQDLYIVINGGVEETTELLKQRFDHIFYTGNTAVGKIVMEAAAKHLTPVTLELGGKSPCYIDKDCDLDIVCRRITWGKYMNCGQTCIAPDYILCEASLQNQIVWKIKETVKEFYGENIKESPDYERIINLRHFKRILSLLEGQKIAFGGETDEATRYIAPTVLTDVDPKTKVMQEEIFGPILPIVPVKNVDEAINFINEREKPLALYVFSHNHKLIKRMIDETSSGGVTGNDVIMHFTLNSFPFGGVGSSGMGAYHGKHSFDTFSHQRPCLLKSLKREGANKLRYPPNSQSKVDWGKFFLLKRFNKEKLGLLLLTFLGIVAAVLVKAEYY
UniProt P58335, whole entry: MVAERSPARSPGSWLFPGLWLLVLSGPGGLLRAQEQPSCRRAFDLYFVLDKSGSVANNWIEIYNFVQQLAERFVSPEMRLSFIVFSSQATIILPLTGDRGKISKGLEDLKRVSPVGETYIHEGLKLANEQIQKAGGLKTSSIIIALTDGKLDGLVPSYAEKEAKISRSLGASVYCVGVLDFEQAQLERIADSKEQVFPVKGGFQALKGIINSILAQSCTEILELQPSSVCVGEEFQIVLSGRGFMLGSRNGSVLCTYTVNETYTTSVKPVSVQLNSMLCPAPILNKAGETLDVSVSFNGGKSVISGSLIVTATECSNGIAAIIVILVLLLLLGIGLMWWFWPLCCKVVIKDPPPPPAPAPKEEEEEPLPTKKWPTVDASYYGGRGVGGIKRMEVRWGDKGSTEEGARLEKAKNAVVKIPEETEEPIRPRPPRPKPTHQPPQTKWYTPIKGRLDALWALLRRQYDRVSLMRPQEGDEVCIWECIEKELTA
UniProt P51825: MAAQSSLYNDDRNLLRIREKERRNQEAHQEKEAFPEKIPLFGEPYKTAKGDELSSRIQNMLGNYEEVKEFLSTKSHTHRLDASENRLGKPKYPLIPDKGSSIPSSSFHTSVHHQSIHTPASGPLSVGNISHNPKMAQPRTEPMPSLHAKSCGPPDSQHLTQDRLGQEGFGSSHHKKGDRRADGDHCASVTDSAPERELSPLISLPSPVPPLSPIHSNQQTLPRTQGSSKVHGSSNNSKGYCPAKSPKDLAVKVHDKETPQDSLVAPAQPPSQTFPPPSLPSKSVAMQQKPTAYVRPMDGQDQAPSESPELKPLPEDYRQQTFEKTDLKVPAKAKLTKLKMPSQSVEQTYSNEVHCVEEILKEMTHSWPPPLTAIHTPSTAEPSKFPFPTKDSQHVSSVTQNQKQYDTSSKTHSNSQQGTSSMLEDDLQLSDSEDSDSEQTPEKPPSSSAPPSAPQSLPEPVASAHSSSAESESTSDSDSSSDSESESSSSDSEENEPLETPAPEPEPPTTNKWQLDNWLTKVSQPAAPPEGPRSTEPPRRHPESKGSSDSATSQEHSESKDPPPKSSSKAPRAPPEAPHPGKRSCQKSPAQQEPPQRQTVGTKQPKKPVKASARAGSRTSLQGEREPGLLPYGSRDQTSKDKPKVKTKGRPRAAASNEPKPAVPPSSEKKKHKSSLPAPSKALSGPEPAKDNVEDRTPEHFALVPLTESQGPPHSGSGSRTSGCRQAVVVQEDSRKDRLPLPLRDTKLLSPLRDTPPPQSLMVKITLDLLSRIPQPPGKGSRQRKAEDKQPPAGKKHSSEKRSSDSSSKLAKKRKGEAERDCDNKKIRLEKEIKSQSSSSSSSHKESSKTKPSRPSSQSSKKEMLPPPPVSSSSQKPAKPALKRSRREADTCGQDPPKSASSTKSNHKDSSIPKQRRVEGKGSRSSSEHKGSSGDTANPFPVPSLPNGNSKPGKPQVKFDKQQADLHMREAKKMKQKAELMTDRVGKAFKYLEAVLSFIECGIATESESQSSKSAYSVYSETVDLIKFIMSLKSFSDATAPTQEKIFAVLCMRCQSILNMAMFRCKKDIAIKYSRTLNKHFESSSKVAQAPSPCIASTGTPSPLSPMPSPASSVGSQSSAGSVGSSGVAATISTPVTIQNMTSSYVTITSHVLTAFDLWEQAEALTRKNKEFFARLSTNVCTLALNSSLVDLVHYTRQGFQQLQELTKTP
UniProt Q5BKT4: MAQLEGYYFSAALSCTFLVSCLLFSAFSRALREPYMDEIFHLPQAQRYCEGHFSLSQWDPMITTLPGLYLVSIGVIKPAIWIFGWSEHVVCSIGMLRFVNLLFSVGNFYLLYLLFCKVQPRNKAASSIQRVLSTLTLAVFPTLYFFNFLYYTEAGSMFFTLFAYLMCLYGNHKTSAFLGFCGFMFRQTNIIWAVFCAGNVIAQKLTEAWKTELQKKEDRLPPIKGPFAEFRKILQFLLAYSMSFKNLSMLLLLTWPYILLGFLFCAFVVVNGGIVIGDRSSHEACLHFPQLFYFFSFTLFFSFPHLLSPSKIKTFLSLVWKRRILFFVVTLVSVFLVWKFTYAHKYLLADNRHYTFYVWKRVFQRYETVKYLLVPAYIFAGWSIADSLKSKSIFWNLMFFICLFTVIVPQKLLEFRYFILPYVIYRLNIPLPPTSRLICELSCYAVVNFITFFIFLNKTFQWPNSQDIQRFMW
UniProt Q9Y303: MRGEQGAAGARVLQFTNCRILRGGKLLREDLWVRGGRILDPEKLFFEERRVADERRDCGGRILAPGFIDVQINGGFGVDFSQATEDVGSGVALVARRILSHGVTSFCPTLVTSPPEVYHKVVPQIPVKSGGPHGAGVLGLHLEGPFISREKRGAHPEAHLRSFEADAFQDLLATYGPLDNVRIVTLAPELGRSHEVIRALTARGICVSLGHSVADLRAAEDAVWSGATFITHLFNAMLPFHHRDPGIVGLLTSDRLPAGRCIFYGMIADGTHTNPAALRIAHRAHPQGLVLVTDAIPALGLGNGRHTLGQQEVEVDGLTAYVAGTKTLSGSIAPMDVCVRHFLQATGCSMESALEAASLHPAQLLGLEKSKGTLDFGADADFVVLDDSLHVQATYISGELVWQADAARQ
UniProt O43865, whole entry: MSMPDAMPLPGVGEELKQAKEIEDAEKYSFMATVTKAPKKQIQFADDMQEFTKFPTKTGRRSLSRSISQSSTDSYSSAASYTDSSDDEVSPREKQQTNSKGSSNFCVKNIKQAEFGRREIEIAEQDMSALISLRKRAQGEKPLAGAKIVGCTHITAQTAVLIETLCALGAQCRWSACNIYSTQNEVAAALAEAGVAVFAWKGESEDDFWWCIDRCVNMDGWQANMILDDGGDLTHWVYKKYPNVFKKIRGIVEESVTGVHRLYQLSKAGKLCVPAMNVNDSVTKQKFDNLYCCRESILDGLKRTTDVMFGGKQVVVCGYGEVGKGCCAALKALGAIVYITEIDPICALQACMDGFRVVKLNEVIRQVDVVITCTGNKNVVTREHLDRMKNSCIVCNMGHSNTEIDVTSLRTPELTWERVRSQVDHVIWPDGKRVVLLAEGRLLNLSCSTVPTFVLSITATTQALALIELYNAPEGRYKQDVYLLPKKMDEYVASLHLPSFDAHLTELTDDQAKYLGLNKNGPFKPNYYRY

Compound: COc1ccc(Cn2ccc3cc(C)c(C(=O)NO)cc32)cc1
Test: dose-dependent thermal stabilisation call (2D-TPP, DLPTP, 10% FDR) (binary (1 = stabilised)); higher = stabilised by the compound
Conditions: system: HL-60 intact cells; concentration range 0.04-10 µM
Protocol: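 2D thermal proteome profiling in intact HL-60 cells treated with BRD-3811 (0, 0.04, 0.29, 2, 10 uM) for 90 min at 37 C, then heated 3 min at one of 12 temperatures (42-63.9 C). Soluble protein was quantified by TMT10 MS. The value is the DLPTP call of the paper: dose-dependent thermal stabilisation over all temperatures at 10% FDR (F-test of a dose-response against a flat model); one experiment, one call per tested protein.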

Target | dose-dependent thermal stabilisation call
ATAD3A (UniProt Q9NVI7) | inactive: 0
ASCC1 (UniProt Q8N9N2) | inactive: 0
AKR7A2 (UniProt O43488) | inactive: 0
ANKZF1 (UniProt Q9H8Y5) | inactive: 0
ASPM (UniProt Q8IZT6) | inactive: 0
ARHGDIB (UniProt P52566) | inactive: 0
ANKRD22 (UniProt Q5VYY1) | inactive: 0
ATIC (UniProt P31939) | active: 1
AP1M1 (UniProt Q9BXS5) | inactive: 0
ARCN1 (UniProt P48444) | inactive: 0
ANKRD13A (UniProt Q8IZ07) | inactive: 0
ASF1A (UniProt Q9Y294) | inactive: 0
ALDH9A1 (UniProt P49189) | inactive: 0
AGFG1 (UniProt P52594) | inactive: 0
APIP (UniProt Q96GX9) | inactive: 0
AFTPH (UniProt Q6ULP2) | inactive: 0
ANAPC5 (UniProt Q9UJX4) | inactive: 0
ATF6B (UniProt Q99941) | inactive: 0

A second format for some results above.
Target	dose-dependent thermal stabilisation call
ARCN1 (UniProt P48444)	inactive: 0
ANKRD13A (UniProt Q8IZ07)	inactive: 0

Remaining list, next part.

Target | dose-dependent thermal stabilisation call
ALDH3A2 (UniProt P51648) | active: 1
ALKBH2 (UniProt Q6NS38) | inactive: 0
ASRGL1 (UniProt Q7L266) | inactive: 0
AIFM1 (UniProt O95831) | active: 1
ANAPC4 (UniProt Q9UJX5) | inactive: 0
ALG11 (UniProt Q2TAA5) | inactive: 0
ANKLE1 (UniProt Q8NAG6) | inactive: 0
ANAPC2 (UniProt Q9UJX6) | inactive: 0
ATF7IP (UniProt Q6VMQ6) | inactive: 0
ANTXR2 (UniProt P58335) | inactive: 0
ARV1 (UniProt Q9H2C2) | inactive: 0
AFF1 (UniProt P51825) | inactive: 0
ARF4 (UniProt P18085) | inactive: 0
ARHGDIA (UniProt P52565) | inactive: 0
ARL8B (UniProt Q9NVJ2) | inactive: 0
ALG10 (UniProt Q5BKT4) | inactive: 0
AMDHD2 (UniProt Q9Y303) | inactive: 0
AHCYL1 (UniProt O43865) | inactive: 0
